Here are results for 73 molecules from ChEMBL document CHEMBL4303122, “Identification of potential treatments for COVID-19 through artificial intelligence-enabled phenomic analysis of human cells infected with SARS-CoV-2” (2020).

Whole data set: some 1,600 compounds, median “Hit score” near 0.13, cut for the highest 2% near 0.46. The list shows a part of the results.

The assay relates to SARS-CoV-2. The experiment in a line: Antiviral activity against SARS-CoV-2 (USA-WA1/2020 strain) measured by imaging in HRCE cells at MOI 0.4 after 96 hrs (reported as hit score from 0-1 for on-disease vs off-disease activity: scores >0.6 considered hits). It is filed as functional, Homo sapiens.
`CCNC(=O)CC[C@H](N)C(=O)O` [THEANINE] showed a Hit score of 0.04805. The same measure for `CCN[C@H]1C[C@H](C)S(=O)(=O)c2sc(S(N)(=O)=O)cc21` [DORZOLAMIDE]: 0.177; for `CCCC(=O)N1CCCN(c2nc(N)c3cc(OC)c(OC)cc3n2)CC1` [BUNAZOSIN]: 0.02603; for `O=C1Cc2cc(CCN3CCN(c4nsc5ccccc45)CC3)c(Cl)cc2N1` [ZIPRASIDONE]: 0.2424. The result for `CC(C)/N=c1\cc2n(-c3ccc(Cl)cc3)c3ccccc3nc-2cc1Nc1ccc(Cl)cc1` [CLOFAZIMINE] reads 0.5936; that for `CC(=O)N(O)CCCCCNC(=O)CCC(=O)N(O)CCCCCNC(=O)CCC(=O)N(O)CCCCCN` [DEFEROXAMINE], -6.19e-05; that for `N[C@H](CO)C(=O)O` [(D)-SERINE], 0.1472. The result for `CCCC(=O)O[C@]1(C(=O)CCl)[C@H](C)C[C@@H]2[C@@H]3CCC4=CC(=O)C=C[C@]4(C)[C@]3(F)C(=O)C[C@@]21C` [CLOBETASONE BUTYRATE] reads 0.1427; that for `Cn1c(COP(=O)(NCCBr)NCCBr)cnc1[N+](=O)[O-]` [EVOFOSFAMIDE], 0.03069; that for `CC(C)(C(=O)c1cccnc1)c1cccnc1` [METYRAPONE], 0.1042. For the molecule `CCC(CC)O[C@@H]1C=C(C(=O)O)C[C@H](N)[C@H]1NC(C)=O` [OSELTAMIVIR CARBOXYLATE], the Hit score stood at 0.1256. The molecule `CCC(NC(C)C)C(O)c1ccc(O)c(O)c1` (stereo not drawn) [ISOETHARINE] gave a Hit score of -0.1314. The same measure for `COc1ccc(OC)c(C(O)C(C)N)c1` (stereo not drawn) [METHOXAMINE]: 0.2545; for `CCOC(=O)C(C)(C)Oc1ccc(Cl)cc1` [CLOFIBRATE]: 0.007924. `C[C@]12CC[C@H](O)CC1=CC(=O)C1C2CC[C@]2(C)C(=O)CCC12` (stereo partly drawn) [7-KETO-DEHYDROEPIANDROSTERONE]: the Hit score turned out to be 0.08537. The result for `CN1CCC(C(=O)c2cccc(NC(=O)c3c(F)cc(F)cc3F)n2)CC1` reads -0.04275. `C#C[C@]1(O)CC[C@H]2[C@@H]3[C@H](C)CC4=C(CCC(=O)C4)[C@H]3CC[C@@]21C` [TIBOLONE] came in with a Hit score of 0.094. Regarding `Cc1cccc(N2CC(CO)OC2=O)c1` (stereo not drawn) [TOLOXATONE], the Hit score is given as -0.02449. Turning to `CN1CCN(C2=Nc3cc(Cl)ccc3Nc3ccccc32)CC1` [CLOZAPINE], the Hit score came out at 0.1925. With `Cc1ccc(/C=C2/C(=O)C3(C)CCC2C3(C)C)cc1` (stereo not drawn) [ENZACAMENE], the Hit score is 0.1975. The result for `CCOc1ccc2nc(SCCN3CCOCC3)[nH]c2c1` [FABOMOTIZOLE] reads 0.2029.

`NC12CC3CC(CC(C3)C1)C2` [AMANTADINE] gave a Hit score of 0.207. The result for `CS(=O)(=O)n1cc2c(n1)CN([C@H]1CO[C@H](c3cc(F)ccc3F)[C@@H](N)C1)C2` [OMARIGLIPTIN] reads 0.162; that for `CCCN(CCc1cccs1)[C@H]1CCc2c(O)cccc2C1` [ROTIGOTINE], 0.1872. The result for `Clc1ccc(COC(Cn2ccnc2)c2ccc(Cl)cc2Cl)c(Cl)c1` (stereo not drawn) [MICONAZOLE] reads 0.003347; that for `OC[C@H]1O[C@@H](c2ccc(F)c(Cc3cc4ccccc4s3)c2)[C@H](O)[C@@H](O)[C@@H]1O` [IPRAGLIFLOZIN], 0.1583; that for `CC1CCc2c(N3CCC(O)CC3)c(F)cc3c(=O)c(C(=O)O)cn1c23` (stereo not drawn) [NADIFLOXACIN], 0.1702. The same measure for `Cc1ccc(-c2ncc(Cl)cc2-c2ccc(S(C)(=O)=O)cc2)cn1` [ETORICOXIB]: 0.06952; for `NC(N)=O` [UREA]: 0.04168. In the case of `Cn1c([N+](=O)[O-])cnc1COC(N)=O` [RONIDAZOLE], the Hit score worked out at 0.02203. The same measure for `COc1ccc2c(c1)c(CC(=O)OCC(C(=O)O)c1ccccc1)c(C)n2C(=O)c1ccc(Cl)cc1` (stereo not drawn): 0.05914; for `CCC[C@H](NC(=O)[C@@H]1[C@H]2CCC[C@H]2CN1C(=O)[C@@H](NC(=O)[C@@H](NC(=O)c1cnccn1)C1CCCCC1)C(C)(C)C)C(=O)C(=O)NC1CC1`: 0.1221.

With `CCCCC1OC(=O)c2ccccc21` (stereo not drawn) [RAC-3-N-BUTYLPHTHALIDE], the Hit score came to 0.2447.

The molecule `COc1ccc(-c2cc(C(F)F)nn2-c2ccc(S(N)(=O)=O)cc2)cc1F` [DERACOXIB] registered a Hit score of 0.1986. The result for `CCCCCCCCCCCCCCCC[n+]1ccccc1` reads 0.1396; that for `COc1ccc(C(=O)NCc2ccc(OCCN(C)C)cc2)cc1OC` [ITOPRIDE], 0.2388; that for `CC(C)CN(C[C@@H](OP(=O)(O)O)[C@H](Cc1ccccc1)NC(=O)O[C@H]1CCOC1)S(=O)(=O)c1ccc(N)cc1` [FOSAMPRENAVIR], 0.1142. The same measure for `CO[C@H]1C[C@H](O[C@@H]2/C(C)=C/C[C@@H]3C[C@@H](C[C@]4(CC[C@H](C)[C@@H](C5CCCCC5)O4)O3)OC(=O)[C@@H]3C=C(C)/C(=N/O)[C@H]4OC/C(=C\C=C\[C@@H]2C)[C@]43O)O[C@@H](C)[C@@H]1O` [SELAMECTIN]: 0.03596; for `OC(CCN1CCCCC1)(c1ccccc1)C1CCCCC1` (stereo not drawn) [TRIHEXYPHENIDYL]: 0.4673; for `Nc1nc(NC2CC2)c2ncn([C@H]3C=C[C@@H](CO)C3)c2n1.Nc1nc(NC2CC2)c2ncn([C@H]3C=C[C@@H](CO)C3)c2n1.O=S(=O)(O)O` [ABACAVIR SULFATE]: 0.1092. As to `N=C(N)N/N=C/c1c(Cl)cccc1Cl` [GUANABENZ], the Hit score is -0.01672. For the molecule `Cc1ccc2c(Cl)cc(Cl)c(O)c2n1` [CHLORQUINALDOL], the Hit score came out at 0.2863. The result for `CCCc1nc(C(C)(C)O)c(C(=O)O)n1Cc1ccc(-c2ccccc2-c2nnn[nH]2)cc1` [OLMESARTAN] reads 0.1095; that for `Brc1c(NC2=NCCN2)ccc2nccnc12` [BRIMONIDINE], 0.1067. The result for `N#Cc1ccc(Oc2ccc3c(c2)COB3O)cc1` [CRISABOROLE] reads 0.00306. The same measure for `CC(N)C12CC3CC(CC(C3)C1)C2` (stereo not drawn) [RIMANTADINE]: 0.1024; for `Nc1cc(-c2ccncc2)c[nH]c1=O` [INAMRINONE]: 0.2162.

As to `C=C[C@@H]1C[C@]1(NC(=O)[C@@H]1C[C@@H](Oc2ncc(OC)c3ccc(Cl)cc23)CN1C(=O)[C@@H](NC(=O)OC(C)(C)C)C(C)(C)C)C(=O)NS(=O)(=O)C1CC1`, the Hit score turned out to be 0.03635. The molecule `CN1[C@@H]2CC[C@H]1C[C@@H](OC(=O)C(O)c1ccccc1)C2` (stereo partly drawn) [HOMATROPINE] yielded a Hit score of 0.09594. The same measure for `CN(CCOc1ccc(CC2SC(=O)NC2=O)cc1)c1ccccn1` (stereo not drawn) [ROSIGLITAZONE]: -0.06876.

Turning to `C[C@]12CC[C@H](OS(=O)(=O)O)CC1=CC[C@@H]1[C@@H]2CC[C@]2(C)C(=O)CC[C@@H]12` [PRASTERONE SULFURIC ACID], the Hit score is on record as 0.1405. `C#C[C@]1(OC(C)=O)CC[C@H]2[C@@H]3CCC4=C[C@@H](OC(C)=O)CC[C@@H]4[C@H]3CC[C@@]21C` [ETHYNODIOL DIACETATE]: the Hit score was 0.2574.

For `Cc1cc(-n2c(=O)[nH]c(=O)n(C)c2=O)ccc1Oc1ccc(SC(F)(F)F)cc1` [TOLTRAZURIL], the Hit score came out at 0.1675.

Regarding `OCCOCCN1CCN(C(c2ccccc2)c2ccc(Cl)cc2)CC1` (stereo not drawn) [HYDROXYZINE], the Hit score is recorded as 0.00308. `OC[C@H]1O[C@@](CO)(O[C@H]2O[C@H](CO)[C@@H](O)[C@H](O)[C@H]2O)[C@@H](O)[C@@H]1O` [SUCROSE] returned a Hit score of 0.09545. The result for `O=C(C[S+]([O-])C(c1ccccc1)c1ccccc1)NO` (stereo not drawn) reads 0.2003; that for `CC(=O)Nc1ccc(O)cc1` [ACETAMINOPHEN], 0.1305; that for `Nc1cccc2c1CN(C1CCC(=O)NC1=O)C2=O` (stereo not drawn) [LENALIDOMIDE], 0.2771.

Take `O=P1(N(CCCl)CCCl)NCCCO1` (stereo not drawn) [CYCLOPHOSPHAMIDE ANHYDROUS]: the Hit score was determined as 0.116.

For `COc1ccc2[nH]c([S+]([O-])Cc3ncc(C)c(OC)c3C)nc2c1` (stereo not drawn) [OMEPRAZOLE], the Hit score amounted to 0.1761.

`CNC(=O)Oc1ccccc1OC(C)C` [PROPOXUR] yielded a Hit score of 0.2239.

In turn, `CCOC(=O)[C@H](CCc1ccccc1)N[C@@H](C)C(=O)N1CCC[C@H]1C(=O)O` had a Hit score of 0.1646. The same measure for `CCc1cccc2c3c([nH]c12)C(CC)(CC(=O)O)OCC3` (stereo not drawn) [ETODOLAC]: 0.1492; for `CC(=O)Oc1ccc2c(c1)CC[C@@H]1[C@@H]2CC[C@]2(C)[C@@H](O)CC[C@@H]12` [ESTRADIOL ACETATE]: 0.08004; for `O=C(OCCN1CCOCC1)c1cccnc1Nc1cccc(C(F)(F)F)c1` [MORNIFLUMATE]: 0.09756.

On to `CC1=C(CC(=O)O)c2cc(F)ccc2/C1=C\c1ccc([S+](C)[O-])cc1` (stereo not drawn), for which the Hit score is reported as 0.1447. The same measure for `CC(Oc1c(Cl)cccc1Cl)C1=NCCN1` (stereo not drawn) [LOFEXIDINE]: 0.1853; for `COc1nc2ccc(Br)cc2cc1[C@@H](c1ccccc1)[C@@](O)(CCN(C)C)c1cccc2ccccc12.O=C(O)/C=C/C(=O)O` [BEDAQUILINE FUMARATE]: 0.01452. The result for `C=CC(=O)N1CCC[C@@H](n2nc(-c3ccc(Oc4ccccc4)cc3)c3c(N)ncnc32)C1` [IBRUTINIB] reads 0.1068. The result for `[O-][n+]1ccccc1S` [PYRITHIONE] reads 0.2583. Turning to `NCCCC[C@H](N)C(=O)O.N[C@@H](CSCC(=O)O)C(=O)O.O`, the Hit score was determined as 0.1749. The same measure for `Cn1c(=O)cc(N2CCC[C@@H](N)C2)n(Cc2ccccc2C#N)c1=O` [ALOGLIPTIN]: 0.1721; for `COc1cc(Nc2ncc(F)c(Nc3ccc4c(n3)N(COP(=O)(O)O)C(=O)C(C)(C)O4)n2)cc(OC)c1OC` [FOSTAMATINIB]: 0.09741.
